Results from PMC5608510.
These are yes or no findings as the source states them, for the method shown. In cells and extracts the contact can be indirect. Some entries that bind do so weakly or less than the wild type.

By UniProt entry, the sequences of proteins in these tests, tags left out.
UniProt P40763: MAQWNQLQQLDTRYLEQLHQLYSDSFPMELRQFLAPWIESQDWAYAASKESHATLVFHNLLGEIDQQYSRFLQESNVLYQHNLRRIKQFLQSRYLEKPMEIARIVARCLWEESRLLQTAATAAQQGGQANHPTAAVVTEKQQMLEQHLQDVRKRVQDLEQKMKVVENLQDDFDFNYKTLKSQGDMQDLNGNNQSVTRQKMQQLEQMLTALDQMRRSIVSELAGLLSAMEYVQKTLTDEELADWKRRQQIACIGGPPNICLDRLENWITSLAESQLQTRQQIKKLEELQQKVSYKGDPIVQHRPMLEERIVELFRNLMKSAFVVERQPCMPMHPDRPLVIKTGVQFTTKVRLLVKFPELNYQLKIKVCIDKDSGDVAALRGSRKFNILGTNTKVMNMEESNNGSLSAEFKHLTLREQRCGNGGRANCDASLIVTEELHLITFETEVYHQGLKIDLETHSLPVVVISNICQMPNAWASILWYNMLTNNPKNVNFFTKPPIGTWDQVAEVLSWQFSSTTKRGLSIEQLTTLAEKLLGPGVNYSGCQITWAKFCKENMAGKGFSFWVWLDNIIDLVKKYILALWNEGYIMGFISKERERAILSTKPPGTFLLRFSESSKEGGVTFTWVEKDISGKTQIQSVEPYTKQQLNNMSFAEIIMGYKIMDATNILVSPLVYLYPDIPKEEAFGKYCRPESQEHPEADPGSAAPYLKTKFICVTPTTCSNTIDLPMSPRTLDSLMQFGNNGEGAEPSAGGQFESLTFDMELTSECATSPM

B1: PGAM5 short isoform (protein, UniProt Q96HS1-2 1-255)
chain: MAFRQALQLAACGLAGGSAAVLFSAVAVGKPRAGGDAEPRPAEPPAWAGGARPGPGVWDPNWDRREPLSLINVRKRNVESGEEELASKLDHYKAKATRHIFLIRHSQYHVDGSLEKDRTLTPLGREQAELTGLRLASLGLKFNKIVHSSMTRAIETTDIISRHLPGVCKVSTDLLREGAPIEPDPPVSHWKPEAVQYYEDGARIEAAFRNYIHRADARQEEDSYEIFICHANVIRYIVCSIPPLLSAGDFVLLGS
B2: IRF1 (protein, UniProt P10914 1-325)
chain: MPITRMRMRPWLEMQINSNQIPGLIWINKEEMIFQIPWKHAAKHGWDINKDACLFRSWAIHTGRYKAGEKEPDPKTWKANFRCAMNSLPDIEEVKDQSRNKGSSAVRVYRMLPPLTKNQRKERKSKSSRDAKSKAKRKSCGDSSPDTFSDGLSSSTLPDDHSSYTVPGYMQDLEVEQALTPALSPCAVSSTLPDWHIPVEVVPDSTSDLYNFQVSPMPSTSEATTDEDEEGKLPEDIMKLLEQSEWQPTNVDGKGYLLNEPGVQPTSVYGDFSCKEEPEIDSPGGDIGLSLQRVFTDLKNMDATWLDSLLTPVRLPSIQAIPCAP

What was measured:
[1] = target: p53 (wild-type) (human (endogenous in LNCaP)) (UniProt P04637); experiment: co-IP; endogenous proteins in LNCaP cell lysate (20 mM Tris pH 8.0, 150 mM NaCl, 5 mM MgCl2, 0.5% NP40), 2 mg precleared lysate with 6 ug antibody overnight at 4 C, protein G Dynabeads or agarose, western blot; in some panels cells treated 16 hr with R1881 or vehicle, or transfected with WDR77 or control siRNA 72 hr before
[2] = target: STAT3 (human (endogenous in LNCaP)) (UniProt P40763); experiment: as above

Binder	binding [1]	binding [2]
B1	binds	–
B2	–	binds
